# Article PMC10691163
# Molecular target: T1, TRAF2 (pXJ40-HA-TRAF2) (UniProt Q12933)
# T1 sequence: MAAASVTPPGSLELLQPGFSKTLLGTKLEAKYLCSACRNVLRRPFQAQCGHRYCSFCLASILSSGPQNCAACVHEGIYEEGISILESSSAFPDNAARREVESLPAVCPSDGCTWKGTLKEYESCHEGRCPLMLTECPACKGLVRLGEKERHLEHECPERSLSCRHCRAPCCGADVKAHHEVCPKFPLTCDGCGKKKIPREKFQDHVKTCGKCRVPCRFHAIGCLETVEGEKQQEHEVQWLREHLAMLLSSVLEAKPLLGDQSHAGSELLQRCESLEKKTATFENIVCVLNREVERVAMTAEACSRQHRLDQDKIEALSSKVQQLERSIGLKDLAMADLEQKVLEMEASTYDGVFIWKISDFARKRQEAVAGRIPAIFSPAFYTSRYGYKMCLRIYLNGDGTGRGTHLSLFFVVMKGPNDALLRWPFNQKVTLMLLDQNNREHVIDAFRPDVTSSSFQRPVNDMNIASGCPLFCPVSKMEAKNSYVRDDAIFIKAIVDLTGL
# Assay: co-IP; HEK-293T cells cotransfected with p3×Flag-Nsp10 and pXJ40-HA-TRAF2, cultured 36 h; lysate supernatant on anti-Flag or anti-HA magnetic beads, 3 h at room temperature, 5 washes with PBST; Western blot
substance,measurement,value
PRRSV nonstructural protein Nsp10 (p3×Flag-Nsp10),binding,binds

# No constants are given. Whether binding was seen depends on the method and setting. Binding seen in cells or lysates may run through a third protein. Binding calls can cover weak binding; strength is not graded here. Sequences can lack the tags named with a protein.
